Measured values: patent US20250313650A1 (BIOLEGEND, published 2025)
No constants are given. Whether binding was seen depends on the method and setting. Some results given as binding are weak or reduced against the parent protein; the word gives no strength.

Chains of the proteins cited; added tags and fusions are not shown. Residues count along the entry.
UniProt P36222, residues 22-383: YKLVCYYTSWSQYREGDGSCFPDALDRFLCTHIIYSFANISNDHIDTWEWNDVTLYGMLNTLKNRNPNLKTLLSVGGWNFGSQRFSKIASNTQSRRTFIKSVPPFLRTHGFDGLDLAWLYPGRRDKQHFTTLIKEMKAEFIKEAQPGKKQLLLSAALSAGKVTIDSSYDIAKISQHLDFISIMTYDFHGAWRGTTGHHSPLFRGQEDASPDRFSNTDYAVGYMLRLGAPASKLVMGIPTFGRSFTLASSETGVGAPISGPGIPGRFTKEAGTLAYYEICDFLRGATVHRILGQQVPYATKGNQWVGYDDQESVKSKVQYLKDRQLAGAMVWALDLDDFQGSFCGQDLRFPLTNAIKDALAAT

Columns and labels:
[1] = biological target: native CHI3L1 protein in a serum sample (UniProt P36222); experiment: sandwich ELISA; biotinylated Clone F is the detection antibody, avidin-HRP/TMB, absorbance at 450 nm
[2] = biological target: native CHI3L1 protein in a serum sample (UniProt P36222); experiment: bead-based sandwich immunoassay; Clone F is the capture antibody on beads
[3] = biological target: native CHI3L1 protein in a serum sample (UniProt P36222); experiment: bead-based sandwich immunoassay; biotinylated Clone B is the detection antibody, SAV-PE read-out
[4] = biological target: native CHI3L1 protein in a serum sample (UniProt P36222); experiment: sandwich ELISA; Clone B is the capture antibody coated on the plate

Binder	binding [1]	binding [2]	binding [3]	binding [4]
anti-human CHI3L1 (Clone F) (antibody, V domains shown, Hybridoma monoclonal antibody; a mouse IgG1 kappa isotype control was used alongside it) VH: QVQLQQSGPELVRPGVSVKISCKGSGYTFTDYAMHWVKQSHAKSLEWIGVISTYSGHTNYNQKFKGKATMTVDKSSSTAYMELARLTSEDSAIYYCARGVYYKPEFDYWGQGTTLTVSS VL: DIQMTQSSSSFSVSLGDRVTITCKASEDIYNRLAWYQQKPGNAPRLLIFGATSLETGVPSRFSGSGSGKDYTLSITSLQTEDVATYYCQQYSSTPPTFGGGTKLEIK	binds	binds		
Clone B (antibody, V domains shown, Hybridoma monoclonal antibody) VH: EVKLLESGGGLVQPGGSLKLSCAASGCDFSRYWMSWVRQAPGKGLEWIGEINPDSSTINYTPSLKDKFIISRDNAKNTLYLQMSKVRSEDTALYYCARPEDHFAMDYWGQGTSVTVSS VL: DIQMTQSPASQSASLGESVTITCLASQTIGTWLAWYQQKPGKSPQLLIYAATSLADGVPSRFSGSGSGTKFSFKISSLQAEDFVSYYCQQLYSTPWTFGGGTKLEIK			binds	binds
